# Test results as given in patent publication US20110053945A1, “SALTS OF 6-(5-CHLORO-2-PYRIDYL)-5-[(4-METHYL-1-PIPERAZINYL)CARBONYLOXY]-7-OXO-6,7-DIHY-DRO-5H-PYRROLO[3,4-B]PYRAZINE” (SEPRACOR INC., priority 2007, published 2011).
# Counter-ions that a name gives are not always drawn.
# Experiment: Open-label taste assessment (Flavor Profile) for bitterness in healthy human subjects
# Type: in vivo
# Settings: scale 0-3
# [1] = 0.01 mg/5 mL in water, aftertaste t = 1 (minutes)
# [2] = 0.01 mg/5 mL in water, aftertaste t = 3 (minutes)
# [3] = 0.01 mg/5 mL in water, aftertaste t = 5 (minutes)
# [4] = 0.01 mg/5 mL in water, aftertaste t = 10 (minutes)
# [5] = 0.01 mg/5 mL in water, aftertaste t = 15 (minutes)
# [6] = 0.01 mg/5 mL in water, aftertaste t = 20 (minutes)
# [7] = 0.01 mg/5 mL in water, aftertaste t = 25 (minutes)
# [8] = 0.01 mg/5 mL in water, aftertaste t = 30 (minutes)
# [9] = 0.01 mg/5 mL in water, t = 0 (initial)
# [10] = 1.0 mg/5 mL in water, aftertaste t = 1 (minutes)
# [11] = 1.0 mg/5 mL in water, aftertaste t = 3 (minutes)
# [12] = 1.0 mg/5 mL in water, aftertaste t = 5 (minutes)
# [13] = 1.0 mg/5 mL in water, aftertaste t = 10 (minutes)
# [14] = 1.0 mg/5 mL in water, aftertaste t = 15 (minutes)
# [15] = 1.0 mg/5 mL in water, aftertaste t = 20 (minutes)
# [16] = 1.0 mg/5 mL in water, aftertaste t = 25 (minutes)
# [17] = 1.0 mg/5 mL in water, aftertaste t = 30 (minutes)
# [18] = 1.0 mg/5 mL in water, t = 0 (initial)
SMILES,Human taste bitterness intensity [1],Human taste bitterness intensity [2],Human taste bitterness intensity [3],Human taste bitterness intensity [4],Human taste bitterness intensity [5],Human taste bitterness intensity [6],Human taste bitterness intensity [7],Human taste bitterness intensity [8],Human taste bitterness intensity [9],Human taste bitterness intensity [10],Human taste bitterness intensity [11],Human taste bitterness intensity [12],Human taste bitterness intensity [13],Human taste bitterness intensity [14],Human taste bitterness intensity [15],Human taste bitterness intensity [16],Human taste bitterness intensity [17],Human taste bitterness intensity [18]
"CN1CCN(C(=O)O[C@H]2c3nccnc3C(=O)N2c2ccc(Cl)cn2)CC1 [D-Malate, (S)-Zopiclone D-Malate]",1.5,1.0,0.7,0.4,0.3,0.1,0,0,1.1,2.9,2.8,2.6,2.3,2.1,1.9,1.8,1.6,3.0
"CN1CCN(C(=O)O[C@H]2c3nccnc3C(=O)N2c2ccc(Cl)cn2)CC1 [Mesylate, (S)-Zopiclone Mesylate]",1.6,1.6,1.3,0.9,0.7,0.6,0.4,0.3,1.4,2.4,2.5,2.1,1.9,1.6,1.5,1.4,1.3,2.6
"CN1CCN(C(=O)OC2c3nccnc3C(=O)N2c2ccc(Cl)cn2)CC1 (stereo in doubt) [(R)-Mandelate, (S)-Zopiclone (R)-Mandelate]",2.0,1.8,1.5,1.1,0.9,0.5,0.3,0.3,1.8,2.9,2.6,2.4,2.1,1.9,1.9,1.7,1.7,2.8
"CN1CCN(C(=O)O[C@H]2c3nccnc3C(=O)N2c2ccc(Cl)cn2)CC1 [Free base, (S)-(6-(5-chloro-2-pyridyl)-5-[(4-methyl-1-piperazinyl)carbonyloxy]-7-oxo-6,7-dihydro-5H-pyrrolo[3,4-b]pyrazine), reference compound]",1.7,1.7,1.5,1.3,1.1,0.9,0.6,0.4,1.6,2.8,2.6,2.4,2.2,2.0,1.8,1.5,1.4,2.7
